Experiment [1] concerns the target T1, Halo-tagged ZEB1 (human) (UniProt P37275).
T1 sequence: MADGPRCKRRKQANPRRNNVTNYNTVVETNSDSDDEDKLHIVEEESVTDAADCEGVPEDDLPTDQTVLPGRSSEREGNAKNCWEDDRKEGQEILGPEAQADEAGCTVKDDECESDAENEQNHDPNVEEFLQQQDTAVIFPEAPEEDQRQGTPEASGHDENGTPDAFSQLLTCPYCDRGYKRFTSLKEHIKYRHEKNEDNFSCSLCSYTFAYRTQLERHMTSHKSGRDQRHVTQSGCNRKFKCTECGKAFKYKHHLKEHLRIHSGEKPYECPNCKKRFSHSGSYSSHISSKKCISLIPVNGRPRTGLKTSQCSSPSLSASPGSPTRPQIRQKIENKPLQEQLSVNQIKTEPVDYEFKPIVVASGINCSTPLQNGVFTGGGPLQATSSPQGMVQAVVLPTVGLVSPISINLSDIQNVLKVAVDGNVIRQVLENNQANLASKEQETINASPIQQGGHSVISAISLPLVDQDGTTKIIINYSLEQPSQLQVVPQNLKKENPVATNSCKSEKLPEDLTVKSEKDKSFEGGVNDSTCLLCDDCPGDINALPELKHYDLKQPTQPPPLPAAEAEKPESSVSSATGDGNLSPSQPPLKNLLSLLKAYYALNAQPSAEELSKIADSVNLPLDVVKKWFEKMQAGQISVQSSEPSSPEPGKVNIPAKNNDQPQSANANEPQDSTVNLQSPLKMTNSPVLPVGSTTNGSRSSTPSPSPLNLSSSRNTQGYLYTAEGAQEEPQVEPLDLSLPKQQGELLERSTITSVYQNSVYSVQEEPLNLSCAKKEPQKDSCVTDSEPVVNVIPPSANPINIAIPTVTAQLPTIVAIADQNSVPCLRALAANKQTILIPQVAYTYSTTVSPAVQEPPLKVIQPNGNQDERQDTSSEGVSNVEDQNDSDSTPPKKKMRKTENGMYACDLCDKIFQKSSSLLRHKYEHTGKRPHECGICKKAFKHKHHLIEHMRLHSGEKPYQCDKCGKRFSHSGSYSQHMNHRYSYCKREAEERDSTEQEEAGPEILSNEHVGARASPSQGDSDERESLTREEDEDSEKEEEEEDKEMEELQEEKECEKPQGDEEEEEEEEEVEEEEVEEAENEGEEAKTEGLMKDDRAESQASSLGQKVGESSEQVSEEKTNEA
Nature of the experiment: biotinylated oligonucleotide precipitation (DNA pull-down); HKMG lysates of co-transfected HuCCT-1 cells incubated 12 hours with 5'-biotinylated double-stranded wild type or mutated E-box/Z-box probes of the miR-200c/141 promoter and poly(dI-dC); streptavidin-agarose beads, Western blot; with or without TGF-beta1 (5 ng/mL, 24 hrs). In general terms: A western blot detects proteins with antibodies after separation by electrophoresis.

The chains behind the UniProt entries cited, without tags or fusion partners.
UniProt Q09472: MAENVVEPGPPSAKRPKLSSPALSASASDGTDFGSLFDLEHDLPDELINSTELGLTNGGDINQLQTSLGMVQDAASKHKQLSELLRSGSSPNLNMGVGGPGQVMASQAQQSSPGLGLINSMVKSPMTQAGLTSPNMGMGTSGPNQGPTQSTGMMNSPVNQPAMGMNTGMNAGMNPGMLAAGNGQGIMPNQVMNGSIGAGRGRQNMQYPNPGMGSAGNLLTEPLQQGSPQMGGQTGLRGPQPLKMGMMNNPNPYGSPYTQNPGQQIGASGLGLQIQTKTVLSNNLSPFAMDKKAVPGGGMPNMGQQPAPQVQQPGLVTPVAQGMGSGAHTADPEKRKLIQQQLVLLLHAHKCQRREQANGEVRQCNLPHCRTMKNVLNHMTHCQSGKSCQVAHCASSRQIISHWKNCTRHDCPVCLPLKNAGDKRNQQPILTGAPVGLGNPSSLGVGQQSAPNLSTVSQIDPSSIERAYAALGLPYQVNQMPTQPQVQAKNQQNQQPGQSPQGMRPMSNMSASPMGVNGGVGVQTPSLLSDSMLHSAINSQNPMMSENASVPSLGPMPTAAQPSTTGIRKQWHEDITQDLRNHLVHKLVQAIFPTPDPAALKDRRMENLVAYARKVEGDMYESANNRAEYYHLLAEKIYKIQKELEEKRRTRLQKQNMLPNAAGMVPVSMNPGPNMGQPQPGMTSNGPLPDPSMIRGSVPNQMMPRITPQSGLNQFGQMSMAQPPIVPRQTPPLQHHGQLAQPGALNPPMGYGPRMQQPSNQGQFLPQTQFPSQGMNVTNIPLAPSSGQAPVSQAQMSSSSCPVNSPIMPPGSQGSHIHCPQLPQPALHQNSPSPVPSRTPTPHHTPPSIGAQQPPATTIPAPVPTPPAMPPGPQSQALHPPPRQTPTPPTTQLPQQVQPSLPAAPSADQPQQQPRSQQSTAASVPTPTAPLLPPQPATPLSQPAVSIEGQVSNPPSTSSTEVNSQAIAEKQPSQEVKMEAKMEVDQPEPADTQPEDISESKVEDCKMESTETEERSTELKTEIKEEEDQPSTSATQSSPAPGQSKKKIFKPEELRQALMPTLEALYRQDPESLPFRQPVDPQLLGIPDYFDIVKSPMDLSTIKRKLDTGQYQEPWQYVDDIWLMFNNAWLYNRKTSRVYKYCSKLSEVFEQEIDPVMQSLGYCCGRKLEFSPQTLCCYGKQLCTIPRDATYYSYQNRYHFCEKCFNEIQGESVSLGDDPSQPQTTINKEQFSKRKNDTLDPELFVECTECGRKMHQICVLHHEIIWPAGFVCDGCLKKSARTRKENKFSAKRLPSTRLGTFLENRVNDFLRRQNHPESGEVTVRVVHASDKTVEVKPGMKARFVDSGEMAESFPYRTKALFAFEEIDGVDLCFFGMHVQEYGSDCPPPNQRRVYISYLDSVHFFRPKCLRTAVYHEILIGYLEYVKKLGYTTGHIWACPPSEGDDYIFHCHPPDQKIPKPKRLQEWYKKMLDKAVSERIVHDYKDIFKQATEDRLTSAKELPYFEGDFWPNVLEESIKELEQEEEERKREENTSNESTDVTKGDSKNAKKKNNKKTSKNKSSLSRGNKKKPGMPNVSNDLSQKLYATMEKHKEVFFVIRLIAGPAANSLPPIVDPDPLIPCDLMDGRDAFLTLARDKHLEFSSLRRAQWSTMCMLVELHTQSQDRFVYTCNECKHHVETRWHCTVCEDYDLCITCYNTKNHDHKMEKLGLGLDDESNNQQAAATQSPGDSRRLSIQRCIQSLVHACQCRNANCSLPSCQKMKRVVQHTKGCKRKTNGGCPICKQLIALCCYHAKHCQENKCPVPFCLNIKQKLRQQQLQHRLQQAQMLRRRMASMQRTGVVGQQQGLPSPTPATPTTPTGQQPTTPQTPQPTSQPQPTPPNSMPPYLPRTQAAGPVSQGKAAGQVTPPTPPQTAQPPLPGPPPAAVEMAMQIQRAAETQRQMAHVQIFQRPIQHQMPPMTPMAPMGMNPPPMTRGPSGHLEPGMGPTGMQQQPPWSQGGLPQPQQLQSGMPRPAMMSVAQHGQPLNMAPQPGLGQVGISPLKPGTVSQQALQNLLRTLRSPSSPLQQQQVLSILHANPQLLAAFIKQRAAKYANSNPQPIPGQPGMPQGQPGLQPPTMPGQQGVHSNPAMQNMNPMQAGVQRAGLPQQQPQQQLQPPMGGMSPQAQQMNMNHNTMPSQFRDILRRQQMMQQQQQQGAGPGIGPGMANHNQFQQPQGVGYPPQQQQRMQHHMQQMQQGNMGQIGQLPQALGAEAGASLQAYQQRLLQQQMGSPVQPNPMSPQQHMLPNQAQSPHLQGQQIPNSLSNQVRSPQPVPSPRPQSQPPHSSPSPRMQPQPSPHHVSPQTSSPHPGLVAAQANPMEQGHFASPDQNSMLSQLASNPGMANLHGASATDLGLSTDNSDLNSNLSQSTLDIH
UniProt Q92831: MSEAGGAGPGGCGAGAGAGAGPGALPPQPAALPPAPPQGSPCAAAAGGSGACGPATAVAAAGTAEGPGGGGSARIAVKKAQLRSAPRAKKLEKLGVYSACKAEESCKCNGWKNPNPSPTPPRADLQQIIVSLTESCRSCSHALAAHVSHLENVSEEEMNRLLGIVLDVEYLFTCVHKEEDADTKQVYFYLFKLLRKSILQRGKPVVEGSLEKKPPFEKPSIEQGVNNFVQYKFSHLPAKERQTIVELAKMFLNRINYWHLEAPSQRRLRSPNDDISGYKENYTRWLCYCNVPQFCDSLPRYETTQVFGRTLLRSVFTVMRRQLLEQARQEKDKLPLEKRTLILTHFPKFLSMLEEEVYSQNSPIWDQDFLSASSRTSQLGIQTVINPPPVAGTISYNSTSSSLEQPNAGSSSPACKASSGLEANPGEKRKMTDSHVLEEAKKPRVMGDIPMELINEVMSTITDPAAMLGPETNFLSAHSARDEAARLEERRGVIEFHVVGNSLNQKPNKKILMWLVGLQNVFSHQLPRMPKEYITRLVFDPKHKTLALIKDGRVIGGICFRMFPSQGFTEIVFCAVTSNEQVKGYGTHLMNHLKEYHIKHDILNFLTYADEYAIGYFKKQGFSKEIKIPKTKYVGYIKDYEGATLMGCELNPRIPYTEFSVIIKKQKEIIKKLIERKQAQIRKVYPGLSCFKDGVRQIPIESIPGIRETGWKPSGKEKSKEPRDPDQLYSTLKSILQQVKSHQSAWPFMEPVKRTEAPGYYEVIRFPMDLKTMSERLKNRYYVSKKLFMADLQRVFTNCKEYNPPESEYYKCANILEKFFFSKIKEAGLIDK

Experiment [2] concerns the target P300 (precipitated with a P300-specific antibody or found on the promoter probe; source not stated) (human) (UniProt Q09472). Nature of the experiment: co-IP; TNE lysates of transfected HuCCT-1 cells; P300 immunoprecipitated, complexes collected on protein G Dynabeads, Western blot; with or without TGF-beta1 (5 ng/mL, 24 hrs).
Experiment [3] has as its target HA-tagged P300 (human) (UniProt Q09472). The experiment is described as above.

No constants are given. Whether binding was seen depends on the method and setting. Binding seen in cells or lysates may run through a third protein. Some results given as binding are weak or reduced against the parent protein; the word gives no strength. For some of these results: Tags and fused reporters may be left off the sequences shown.

Consider “Flag-tagged PCAF (from UniProt Q92831 1-832)”, for which the binding result in experiment [1] and in experiment [2] was “binds” each time.

As for “P300 (precipitated with a P300-specific antibody or found on the promoter probe; source not stated) (from UniProt Q09472 1-2414)”, in experiment [1], the binding entry is “binds”.

B1: ZEB1 (co-immunoprecipitated with P300; source not stated) (protein, UniProt P37275 1-1124)
chain: T1 sequence
Take B1: the binding result in experiment [3] was “binds”.

The values are drawn from paper PMC3284570.
